These are yes or no findings as the source states them, for the method shown. Binding seen in cells or lysates may run through a third protein. Some binding calls cover weakened binding; strength is not graded here.

The target of test [1] is T1, IL-10Rα, endogenous in RAW264.7 and BV-2 cells (mouse (endogenous in RAW264.7 and BV-2)) (UniProt Q61727).
T1 sequence: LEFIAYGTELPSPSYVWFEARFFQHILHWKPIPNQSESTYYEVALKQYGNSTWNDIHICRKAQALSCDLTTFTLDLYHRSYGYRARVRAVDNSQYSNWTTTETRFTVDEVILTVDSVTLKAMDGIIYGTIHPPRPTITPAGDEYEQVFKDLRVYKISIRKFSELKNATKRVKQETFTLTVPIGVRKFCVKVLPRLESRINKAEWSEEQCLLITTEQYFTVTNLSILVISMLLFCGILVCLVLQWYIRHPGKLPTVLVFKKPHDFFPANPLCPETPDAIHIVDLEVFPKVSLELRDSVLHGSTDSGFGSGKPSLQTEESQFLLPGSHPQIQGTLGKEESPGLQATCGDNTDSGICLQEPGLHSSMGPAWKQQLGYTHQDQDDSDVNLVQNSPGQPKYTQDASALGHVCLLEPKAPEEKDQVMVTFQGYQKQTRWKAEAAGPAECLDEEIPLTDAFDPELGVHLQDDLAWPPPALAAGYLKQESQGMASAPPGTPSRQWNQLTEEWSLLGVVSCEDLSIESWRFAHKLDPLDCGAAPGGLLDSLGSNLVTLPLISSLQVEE
In words: proximity ligation; Duo-Link on RAW264.7 cells, DMSO or peptide 10^-7 M for one hour, fixed 2% PFA, permeabilized; antibodies to IL-10Ra and IL-10Rb; endogenous subunits.

For test [2], the target named is T1, IL-10Rα, endogenous in RAW264.7 and BV-2 cells (mouse (endogenous in RAW264.7 and BV-2)). In words: proximity ligation; Duo-Link on BV-2 cells, DMSO or peptide 10^-7 M for one hour, fixed 2% PFA, permeabilized; antibodies to IL-10Ra and IL-10Rb; endogenous subunits.

B1: IL-10Rβ, full-length subunit of the interleukin 10 receptor (receptor, UniProt Q61190 20-349, looked up)
chain: MIPPPEKVRMNSVNFKNILQWEVPAFPKTNLTFTAQYESYRSFQDHCKRTASTQCDFSHLSKYGDYTVRVRAELADEHSEWVNVTFCPVEDTIIGPPEMQIESLAESLHLRFSAPQIENEPETWTLKNIYDSWAYRVQYWKNGTNEKFQVVSPYDSEVLRNLEPWTTYCIQVQGFLLDQNRTGEWSEPICERTGNDEITPSWIVAIILIVSVLVVFLFLLGCFVVLWLIYKKTKHTFRSGTSLPQHLKEFLGHPHHSTFLLFSFPPPEEAEVFDKLSIISEESEGSKQSPEDNCASEPPSDPGPRELESKDEAPSPPHDDPKLLTSTSEV
notes: Interleukin 10 receptor subunit beta, full length; One tag per copy: Rluc fusion as donor, eYFP fusion as acceptor; also called IL-10Rβ_FL; full-length IL-10Rβ; source: HEK293, transfected, in living cells
With B1, the binding entry in test [1] and in test [2] was “binds” each time.

The values above are taken from paper PMC10216903, “Implication of the Transmembrane Domain in the Interleukin 10 Receptor Platform Oligomerisation” (Cells, 2023).
